PubChem BioAssay AID463183 (Sanford-Burnham Center for Chemical Genomics, 2010)
The inconclusive results got no clear call from the source.

Experiment: blockers of oleate-driven lipid droplets in liver cells – imaging, AML12 mouse hepatocytes, single concentration, high-content, confirmation (AID 463183);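 also: plate controls were DMSO with oleic acid for no effect and 5 µM Triacsin-C for full effect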
Conditions: BODIPY lipid droplet imaging, at 5.2 µM, active compounds read high;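 active = inhibition of lipid droplet metric at least 50%, with more than 300 cells in each of four replicates; inconclusive = wells under 300 cells, flagged as toxic or low count; inactive = the rest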

COC(=O)C1CN(C#N)N(c2ccc(Cl)cc2)C12c1ccccc1-c1ccccc12 (stereo unspecified)
inhibition: inconclusive: -74.2%
